Measurements reported in the supplement of paper PMC10849652.
This is one part of the list. Residues, ends and D or L forms follow the SMILES beside them. *: point of attachment. Cbz = O=C(OCc1ccccc1)*

Protein sequences, listed by entry. Tags and fused reporters are not part of them. Lines headed by an entry give the natural chain unless they say otherwise; changes in a name come on top.
UniProt Q86X76: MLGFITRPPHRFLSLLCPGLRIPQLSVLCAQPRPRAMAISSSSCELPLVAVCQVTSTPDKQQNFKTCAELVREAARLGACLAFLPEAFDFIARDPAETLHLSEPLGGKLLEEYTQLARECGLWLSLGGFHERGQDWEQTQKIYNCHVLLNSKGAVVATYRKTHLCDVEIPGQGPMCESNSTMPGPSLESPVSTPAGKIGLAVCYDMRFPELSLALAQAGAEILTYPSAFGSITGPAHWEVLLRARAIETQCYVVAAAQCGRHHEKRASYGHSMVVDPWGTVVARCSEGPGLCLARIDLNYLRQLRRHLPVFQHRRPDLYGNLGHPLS
UniProt Q9HAN9, whole entry, looked up: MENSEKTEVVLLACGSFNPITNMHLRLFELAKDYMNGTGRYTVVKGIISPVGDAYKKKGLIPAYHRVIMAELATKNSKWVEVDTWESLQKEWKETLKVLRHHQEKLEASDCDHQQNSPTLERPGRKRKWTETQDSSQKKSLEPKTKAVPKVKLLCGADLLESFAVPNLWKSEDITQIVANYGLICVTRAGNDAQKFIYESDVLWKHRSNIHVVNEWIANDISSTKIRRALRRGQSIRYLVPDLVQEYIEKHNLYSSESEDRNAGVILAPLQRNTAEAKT
UniProt Q9BZQ8: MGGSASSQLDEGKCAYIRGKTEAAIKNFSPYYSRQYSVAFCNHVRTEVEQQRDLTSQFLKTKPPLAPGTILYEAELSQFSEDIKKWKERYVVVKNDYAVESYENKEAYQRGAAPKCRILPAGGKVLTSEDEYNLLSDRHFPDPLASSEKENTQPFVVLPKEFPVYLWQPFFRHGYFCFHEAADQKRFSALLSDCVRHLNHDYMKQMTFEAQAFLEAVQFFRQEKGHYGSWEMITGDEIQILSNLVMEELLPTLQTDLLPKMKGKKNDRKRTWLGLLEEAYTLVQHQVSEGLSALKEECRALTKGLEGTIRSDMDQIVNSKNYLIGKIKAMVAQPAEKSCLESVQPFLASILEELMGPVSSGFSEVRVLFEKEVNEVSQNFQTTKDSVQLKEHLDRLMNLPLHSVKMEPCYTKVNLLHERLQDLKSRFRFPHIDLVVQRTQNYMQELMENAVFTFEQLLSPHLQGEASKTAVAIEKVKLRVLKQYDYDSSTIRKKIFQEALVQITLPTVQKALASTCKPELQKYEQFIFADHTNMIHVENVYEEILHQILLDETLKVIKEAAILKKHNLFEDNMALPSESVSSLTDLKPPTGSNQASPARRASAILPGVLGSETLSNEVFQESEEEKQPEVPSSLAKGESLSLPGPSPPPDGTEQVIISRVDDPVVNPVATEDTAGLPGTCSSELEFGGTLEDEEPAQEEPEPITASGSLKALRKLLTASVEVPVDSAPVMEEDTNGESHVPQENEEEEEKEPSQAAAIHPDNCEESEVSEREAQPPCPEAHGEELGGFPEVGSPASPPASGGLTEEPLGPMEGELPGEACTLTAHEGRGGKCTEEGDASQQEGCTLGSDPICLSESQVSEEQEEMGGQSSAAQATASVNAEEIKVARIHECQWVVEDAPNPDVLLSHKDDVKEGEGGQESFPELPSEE
UniProt P15559, whole entry, looked up: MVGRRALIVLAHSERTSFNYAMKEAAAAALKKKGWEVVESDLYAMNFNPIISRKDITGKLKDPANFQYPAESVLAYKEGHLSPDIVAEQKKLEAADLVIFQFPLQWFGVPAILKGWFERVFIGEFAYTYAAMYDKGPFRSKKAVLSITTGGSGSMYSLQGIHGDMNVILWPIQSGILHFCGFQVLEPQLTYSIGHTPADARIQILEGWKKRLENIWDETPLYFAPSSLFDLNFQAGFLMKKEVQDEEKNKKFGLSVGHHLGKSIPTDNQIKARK
UniProt Q96D46: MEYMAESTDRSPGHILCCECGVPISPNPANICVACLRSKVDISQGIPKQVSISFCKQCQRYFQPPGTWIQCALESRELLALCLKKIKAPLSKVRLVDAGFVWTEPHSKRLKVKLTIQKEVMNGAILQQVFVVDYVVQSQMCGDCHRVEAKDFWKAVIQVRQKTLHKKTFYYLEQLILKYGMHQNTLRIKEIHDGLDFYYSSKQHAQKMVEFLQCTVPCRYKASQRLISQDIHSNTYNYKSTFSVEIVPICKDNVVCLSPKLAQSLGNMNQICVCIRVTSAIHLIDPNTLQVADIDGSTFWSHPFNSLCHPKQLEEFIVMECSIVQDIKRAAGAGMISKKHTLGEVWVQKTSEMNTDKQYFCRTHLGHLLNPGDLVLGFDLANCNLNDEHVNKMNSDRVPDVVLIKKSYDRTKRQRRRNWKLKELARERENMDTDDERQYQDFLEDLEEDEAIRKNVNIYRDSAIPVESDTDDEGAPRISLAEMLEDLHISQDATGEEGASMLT
UniProt Q12968: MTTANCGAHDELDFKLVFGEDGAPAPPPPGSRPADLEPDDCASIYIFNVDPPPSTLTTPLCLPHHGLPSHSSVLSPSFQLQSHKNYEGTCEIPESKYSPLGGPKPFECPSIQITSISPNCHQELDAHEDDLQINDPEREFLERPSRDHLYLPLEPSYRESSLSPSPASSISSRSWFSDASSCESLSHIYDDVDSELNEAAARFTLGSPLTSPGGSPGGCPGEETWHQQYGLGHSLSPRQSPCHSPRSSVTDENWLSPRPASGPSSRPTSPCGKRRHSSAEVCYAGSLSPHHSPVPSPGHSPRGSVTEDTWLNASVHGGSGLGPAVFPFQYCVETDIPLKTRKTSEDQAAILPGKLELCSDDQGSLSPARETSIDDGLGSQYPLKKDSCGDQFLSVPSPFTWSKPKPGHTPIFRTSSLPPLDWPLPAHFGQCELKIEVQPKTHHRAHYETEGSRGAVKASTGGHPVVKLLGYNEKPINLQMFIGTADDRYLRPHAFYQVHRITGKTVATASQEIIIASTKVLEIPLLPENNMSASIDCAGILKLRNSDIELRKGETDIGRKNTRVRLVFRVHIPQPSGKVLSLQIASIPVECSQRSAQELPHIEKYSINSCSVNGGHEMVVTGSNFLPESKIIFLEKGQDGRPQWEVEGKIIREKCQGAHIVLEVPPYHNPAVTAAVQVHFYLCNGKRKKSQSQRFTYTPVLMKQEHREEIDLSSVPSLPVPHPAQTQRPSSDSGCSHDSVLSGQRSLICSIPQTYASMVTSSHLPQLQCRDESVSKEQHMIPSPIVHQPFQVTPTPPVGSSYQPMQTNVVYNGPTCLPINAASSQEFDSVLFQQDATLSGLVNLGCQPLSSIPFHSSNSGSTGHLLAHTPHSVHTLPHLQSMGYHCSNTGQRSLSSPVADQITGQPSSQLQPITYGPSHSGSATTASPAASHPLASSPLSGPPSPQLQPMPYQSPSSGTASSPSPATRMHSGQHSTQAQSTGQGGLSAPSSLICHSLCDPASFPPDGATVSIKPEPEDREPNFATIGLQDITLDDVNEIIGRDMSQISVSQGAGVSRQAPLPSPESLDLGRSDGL
UniProt Q8NBF2: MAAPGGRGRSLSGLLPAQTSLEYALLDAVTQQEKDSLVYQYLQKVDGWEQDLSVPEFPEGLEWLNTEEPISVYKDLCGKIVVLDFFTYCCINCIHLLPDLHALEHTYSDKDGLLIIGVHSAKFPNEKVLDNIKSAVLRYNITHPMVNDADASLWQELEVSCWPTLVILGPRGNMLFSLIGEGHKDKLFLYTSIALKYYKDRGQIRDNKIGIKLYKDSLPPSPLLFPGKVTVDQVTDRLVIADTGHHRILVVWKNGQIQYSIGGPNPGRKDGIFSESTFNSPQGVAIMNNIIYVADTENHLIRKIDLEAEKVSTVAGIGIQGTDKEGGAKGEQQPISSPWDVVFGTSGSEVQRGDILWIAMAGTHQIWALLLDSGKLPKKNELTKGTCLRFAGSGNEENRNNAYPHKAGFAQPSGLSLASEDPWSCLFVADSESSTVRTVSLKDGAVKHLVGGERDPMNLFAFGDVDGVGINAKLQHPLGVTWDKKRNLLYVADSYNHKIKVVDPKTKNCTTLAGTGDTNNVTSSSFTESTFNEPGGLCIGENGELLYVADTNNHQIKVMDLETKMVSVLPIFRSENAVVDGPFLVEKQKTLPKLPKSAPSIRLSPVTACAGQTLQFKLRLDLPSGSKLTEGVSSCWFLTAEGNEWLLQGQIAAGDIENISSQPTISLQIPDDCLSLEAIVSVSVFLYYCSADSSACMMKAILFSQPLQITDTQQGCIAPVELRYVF
UniProt Q9HBL8: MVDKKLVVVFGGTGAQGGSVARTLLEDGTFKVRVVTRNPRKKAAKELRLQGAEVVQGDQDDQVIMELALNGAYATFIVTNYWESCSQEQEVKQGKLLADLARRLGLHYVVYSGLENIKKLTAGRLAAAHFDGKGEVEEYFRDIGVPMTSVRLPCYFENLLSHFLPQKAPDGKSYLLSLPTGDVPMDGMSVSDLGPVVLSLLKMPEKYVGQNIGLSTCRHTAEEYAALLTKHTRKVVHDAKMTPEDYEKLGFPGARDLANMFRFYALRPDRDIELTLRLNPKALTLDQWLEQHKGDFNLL
UniProt Q12986: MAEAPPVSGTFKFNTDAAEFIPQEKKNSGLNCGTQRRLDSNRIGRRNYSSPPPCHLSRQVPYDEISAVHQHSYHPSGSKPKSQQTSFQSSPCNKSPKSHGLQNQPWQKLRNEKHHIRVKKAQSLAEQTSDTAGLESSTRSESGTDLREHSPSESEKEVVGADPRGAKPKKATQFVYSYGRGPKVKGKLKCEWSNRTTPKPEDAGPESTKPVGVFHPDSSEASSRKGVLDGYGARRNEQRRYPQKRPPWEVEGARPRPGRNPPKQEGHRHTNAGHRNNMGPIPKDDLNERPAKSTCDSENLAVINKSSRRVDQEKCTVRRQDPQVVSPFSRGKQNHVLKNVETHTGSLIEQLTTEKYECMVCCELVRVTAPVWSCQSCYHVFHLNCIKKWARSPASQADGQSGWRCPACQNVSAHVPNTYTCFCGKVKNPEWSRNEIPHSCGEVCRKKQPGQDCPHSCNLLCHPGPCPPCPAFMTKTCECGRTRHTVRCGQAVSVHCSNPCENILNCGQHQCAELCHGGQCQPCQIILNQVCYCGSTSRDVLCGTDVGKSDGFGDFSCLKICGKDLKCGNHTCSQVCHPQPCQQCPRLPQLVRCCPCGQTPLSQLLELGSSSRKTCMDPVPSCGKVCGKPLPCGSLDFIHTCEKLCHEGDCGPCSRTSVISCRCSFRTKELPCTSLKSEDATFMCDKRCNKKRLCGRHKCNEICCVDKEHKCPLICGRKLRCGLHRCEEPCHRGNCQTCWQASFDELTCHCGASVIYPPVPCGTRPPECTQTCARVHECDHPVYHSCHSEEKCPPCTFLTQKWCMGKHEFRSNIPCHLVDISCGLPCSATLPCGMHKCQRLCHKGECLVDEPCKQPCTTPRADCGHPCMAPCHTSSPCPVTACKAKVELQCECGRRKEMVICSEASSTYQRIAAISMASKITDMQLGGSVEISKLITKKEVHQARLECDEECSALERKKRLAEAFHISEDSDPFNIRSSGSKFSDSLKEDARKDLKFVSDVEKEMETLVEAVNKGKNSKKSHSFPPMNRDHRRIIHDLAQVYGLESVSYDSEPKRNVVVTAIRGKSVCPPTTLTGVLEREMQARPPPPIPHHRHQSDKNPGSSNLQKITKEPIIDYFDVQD
UniProt Q86WQ0: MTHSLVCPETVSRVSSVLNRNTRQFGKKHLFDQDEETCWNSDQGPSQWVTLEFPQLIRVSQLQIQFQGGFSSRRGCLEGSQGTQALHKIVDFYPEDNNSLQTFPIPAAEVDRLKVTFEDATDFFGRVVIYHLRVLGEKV
UniProt P15531, whole entry, looked up: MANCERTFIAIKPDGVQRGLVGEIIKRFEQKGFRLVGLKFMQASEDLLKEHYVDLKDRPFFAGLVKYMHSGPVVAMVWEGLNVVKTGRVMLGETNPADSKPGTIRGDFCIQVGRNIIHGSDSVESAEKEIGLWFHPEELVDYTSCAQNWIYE
UniProt Q9H8H0: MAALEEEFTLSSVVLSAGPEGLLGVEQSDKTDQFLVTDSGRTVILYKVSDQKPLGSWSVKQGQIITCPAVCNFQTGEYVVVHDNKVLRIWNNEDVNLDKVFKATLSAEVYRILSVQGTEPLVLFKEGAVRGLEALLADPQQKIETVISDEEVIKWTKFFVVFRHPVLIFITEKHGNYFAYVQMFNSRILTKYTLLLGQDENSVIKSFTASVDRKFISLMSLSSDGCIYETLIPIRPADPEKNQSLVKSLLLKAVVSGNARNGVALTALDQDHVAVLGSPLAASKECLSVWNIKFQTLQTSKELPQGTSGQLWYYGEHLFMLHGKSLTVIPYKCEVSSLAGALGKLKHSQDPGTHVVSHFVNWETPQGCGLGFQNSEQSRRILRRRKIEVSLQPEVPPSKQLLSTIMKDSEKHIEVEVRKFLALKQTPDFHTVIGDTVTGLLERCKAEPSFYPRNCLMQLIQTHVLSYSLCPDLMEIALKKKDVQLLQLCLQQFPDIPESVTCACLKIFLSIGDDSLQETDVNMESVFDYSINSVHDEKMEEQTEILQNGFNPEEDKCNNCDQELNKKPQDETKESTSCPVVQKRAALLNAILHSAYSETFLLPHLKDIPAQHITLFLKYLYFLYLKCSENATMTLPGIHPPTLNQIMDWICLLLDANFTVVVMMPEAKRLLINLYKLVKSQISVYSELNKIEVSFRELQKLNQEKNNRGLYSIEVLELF

Experiments:
Experiment in all cases: log2 fold change, soluble protein after heating vs DMSO (PISA); higher = thermal stabilisation; K562 cells, 10 uM, 30 min; active = over 0.2 and 3.5 SD of the protein, either way, in both replicates (recomputed)
[1] = compound: C#Cc1cccc(Nc2ncnc3cc(OCCOC)c(OCCOC)cc23)c1 [erlotinib]
Procedure, shortened: (§1)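 K562 cells at 2×10^6 cells/mL were exposed to 10 μM compound for 30 min, then aliquots were heated for 3 min across 48°C-58°C, pooled, and extracted in PBS containing 0.5% NP-40 at 4°C. The supernatant after 21,000xg for 90 min was taken as soluble protein and measured by TMTpro 16plex LC-MS/MS with channel sums equalised. Thermal stability is reported relative to control samples, with values from duplicates. Fold changes are given on a log2 scale.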

[2] = compound: C/C(=N\NC(=O)C1=CC(=CC=C1)S(=O)(=O)N2CCOCC2)/C3=C(C=CC(=C3)Cl)O
Procedure, shortened: as §1

[3] = compound: C1=CC(=C(C=C1Cl)C2=NC3=NC=CN=C3C(=N2)NC4=CC=NC=C4)F
Procedure, shortened: as §1

[4] = compound: C1=CC(=CC=C1C2=NC3=C(N2)C=C(C=C3)C(=O)N)OC4=CC=C(C=C4)Cl
Procedure, shortened: as §1

[5] = compound: C1=CC2=C(C=CC(=C2)/C=C\3/C(=O)NC(=NCC4=CC=CS4)S3)N=C1
Procedure, shortened: as §1

[6] = compound: C1=CC2=NC=CN=C2C=C1/C=C/3\C(=O)NC(=O)S3
Procedure, shortened: as §1

[7] = compound: C1=CC=C(C=C1)C2=NC(=C(N2)C3=CC=NC=C3)C4=CC(=C(C=C4)Cl)O
Procedure, shortened: as §1

[8] = compound: C1=CC=C2C(=C1)C3=NNC4=CC=CC(=C43)C2=O
Procedure, shortened: as §1

[9] = compound: C1CCN(C1)C(=O)NC2=CC=CC(=C2)NC3=NC=C(C(=N3)NCCC4=CN=CN4)Br
Procedure, shortened: as §1

[10] = compound: C1CN(CCC1(CC2=CC=C(C=C2)Cl)N)C3=NC=NC4=C3C=CN4
Procedure, shortened: as §1

[11] = compound: C1COCCN1CCN2C3=CC=CC=C3N=C2NC(=O)C4=CC(=CC=C4)[N+](=O)[O-] [IRAK-1-4 Inhibitor I]
Procedure, shortened: as §1

[12] = compound: C=CC(=O)N1CCC[C@@H](n2nc(-c3ccc(Oc4ccccc4)cc3)c3c(N)ncnc32)C1 [ibrutinib]
Procedure, shortened: as §1

[13] = compound: CC(=O)c1cnc2ccc(-c3cc(Cl)c(O)c(Cl)c3)nc2c1N[C@H]1CC[C@H](CN(C)C)CC1
Procedure, shortened: as §1

[14] = compound: CC(C)(C)Cn1c(N)nc2ccc(-c3[nH]c(C(C)(C)C)nc3-c3ccc(F)cc3)nc21 [ralimetinib]
Procedure, shortened: as §1

[15] = compound: CC(C)(O)CC(=O)NCCn1ccc2ncnc(Nc3ccc(Oc4cccc(C(F)(F)F)c4)c(Cl)c3)c21
Procedure, shortened: as §1

[16] = compound: CC(C)C1=C2N=C(C=C(N2N=C1)NCC3=CC=CC=C3)NCCCCCCN
Procedure, shortened: as §1

[17] = compound: CC(C)C[C@@H](C=O)NC(=O)[C@H](CC(C)C)NC(=O)[C@H](CC(C)C)NC(=O)OCc1ccccc1
Procedure, shortened: as §1

[18] = compound: CC(C)N(C[C@H]1O[C@@H](n2cnc3c(N)ncnc32)[C@H](O)[C@@H]1O)[C@H]1C[C@@H](CCc2nc3cc(C(C)(C)C)ccc3[nH]2)C1 [pinometostat]
Procedure, shortened: as §1

[19] = compound: CC1=C(C(CC(=O)N1)C2=CC=C(C=C2)C(F)(F)F)C(=O)NC3=C(C=C4C(=C3)C=NN4)F
Procedure, shortened: as §1

[20] = compound: CC1=C(C2=C(C=C1)C(=O)C3=CC=CC=C3N2CCCN)C
Procedure, shortened: as §1

| Target | log2 fold change [1] | log2 fold change [2] | log2 fold change [3] | log2 fold change [4] | log2 fold change [5] | log2 fold change [6] | log2 fold change [7] | log2 fold change [8] | log2 fold change [9] | log2 fold change [10] | log2 fold change [11] | log2 fold change [12] | log2 fold change [13] | log2 fold change [14] | log2 fold change [15] | log2 fold change [16] | log2 fold change [17] | log2 fold change [18] | log2 fold change [19] | log2 fold change [20] |
| --- | --- | --- | --- | --- | --- | --- | --- | --- | --- | --- | --- | --- | --- | --- | --- | --- | --- | --- | --- | --- |
| NFIC (UniProt P08651) | inactive: -0.027 | inactive: -0.057 | inactive: -0.071 | inactive: 0.032 | inactive: 0.038 | inactive: -0.009 | inactive: -0.008 | inactive: -0.021 | inactive: 0.012 | inactive: 0.065 | inactive: -0.02 | inactive: -0.003 | inactive: -0.072 | inactive: 0.038 | inactive: -0.036 | inactive: 0.029 | inactive: 0.031 | inactive: 0.074 | inactive: -0.01 | inactive: 0.097 |
| NOP16 (UniProt Q9Y3C1) | inactive: -0.227 | inactive: -0.289 | inactive: -0.485 | inactive: -0.03 | inactive: -0.167 | inactive: -0.044 | inactive: -0.054 | inactive: 0.017 | inactive: 0.058 | inactive: -0.163 | inactive: -0.229 | inactive: 0.104 | inactive: 0.16 | inactive: 0.19 | inactive: 0.122 | inactive: 0.078 | inactive: 0.138 | inactive: 0.279 | inactive: -0.007 | inactive: -0.554 |
| NIT1 (UniProt Q86X76) | inactive: 0.008 | inactive: -0.004 | inactive: 0 | inactive: 0.057 | inactive: 0.03 | inactive: 0.023 | inactive: 0.014 | inactive: -0.02 | inactive: 0.014 | inactive: 0.036 | inactive: 0.03 | inactive: 0.044 | inactive: 0.021 | inactive: -0.028 | inactive: 0 | inactive: 0.048 | inactive: -0.046 | inactive: -0.015 | inactive: 0.062 | inactive: -0.032 |
| NMNAT1 (UniProt Q9HAN9) | inactive: 0.033 | inactive: -0.145 | inactive: -0.302 | inactive: -0.111 | inactive: -0.032 | inactive: 0.03 | inactive: -0.102 | inactive: -0.008 | inactive: 0.157 | inactive: -0.046 | inactive: -0.007 | inactive: 0.073 | inactive: 0.05 | inactive: 0.18 | inactive: 0.13 | inactive: 0.093 | inactive: 0.168 | inactive: 0.429 |  | active: -0.674 |
| NIBAN1 (UniProt Q9BZQ8) | inactive: 0.014 | inactive: 0.103 | inactive: -0.022 | inactive: 0.017 | inactive: 0.058 | inactive: -0.009 | inactive: -0.005 | inactive: -0.047 | inactive: -0.017 | inactive: -0.06 | inactive: -0.125 | inactive: 0 | inactive: -0.163 | inactive: 0.084 | inactive: -0.07 | active: -0.277 | inactive: 0.037 | inactive: 0.068 |  | inactive: 0.02 |
| NQO1 (UniProt P15559) | inactive: -0.064 | inactive: 0.037 | inactive: 0.089 | inactive: -0.002 | inactive: -0.06 | inactive: -0.005 | inactive: -0.014 | active: 0.269 | inactive: -0.015 | inactive: 0.065 | inactive: 0.001 | inactive: -0.053 | inactive: 0.044 | inactive: 0.001 | inactive: -0.029 | inactive: -0.035 | inactive: -0.045 | inactive: -0.02 |  | inactive: -0.01 |
| NMD3 (UniProt Q96D46) | inactive: 0.025 | inactive: 0.011 | inactive: 0.052 | inactive: 0.023 | inactive: 0.009 | inactive: -0.02 | inactive: 0.05 | inactive: 0.013 | inactive: 0.064 | active: -0.281 | inactive: 0.001 | inactive: -0.046 | inactive: 0.017 | inactive: -0.049 | inactive: -0.104 | inactive: -0.069 | inactive: -0.141 | inactive: -0.026 |  | active: -0.392 |
| NFATC3 (UniProt Q12968) | inactive: 0.121 | inactive: 0.197 | inactive: 0.024 | inactive: 0 | inactive: 0.039 | inactive: -0.013 | inactive: -0.019 | inactive: -0.101 | inactive: -0.01 | inactive: -0.027 | inactive: -0.116 | inactive: 0.01 | active: -0.406 | active: 0.386 | inactive: -0.105 | inactive: -0.209 | inactive: 0.145 | inactive: 0.053 |  | inactive: -0.036 |
| NIFK (UniProt Q9BYG3) | inactive: -0.067 | inactive: -0.152 | inactive: -0.436 | inactive: -0.074 | inactive: 0.042 | inactive: 0.023 | inactive: -0.002 | inactive: 0.101 | inactive: 0.122 | inactive: -0.06 | inactive: -0.044 | inactive: -0.007 | inactive: 0.197 | inactive: 0.094 | inactive: 0.051 | inactive: 0.172 | inactive: 0.097 | inactive: 0.267 | inactive: -0.141 | inactive: -0.114 |
| NHLRC2 (UniProt Q8NBF2) | inactive: 0.035 | inactive: 0 | inactive: -0.059 | inactive: 0.057 | inactive: 0.065 | inactive: -0.074 | inactive: -0.114 | inactive: 0.042 | inactive: 0.051 | inactive: 0.001 | inactive: 0.039 | inactive: 0.07 | inactive: -0.02 | inactive: -0.122 | inactive: -0.026 | inactive: -0.124 | inactive: 0.143 | inactive: 0.013 |  | inactive: 0.023 |
| NMRAL1 (UniProt Q9HBL8) | inactive: 0.239 | inactive: -0.118 | active: 0.841 | inactive: -0.054 | inactive: 0.098 | inactive: 0.141 | inactive: 0.029 | inactive: 0.273 | inactive: -0.055 | inactive: 0.037 | inactive: 0.058 | active: 0.874 | inactive: 0.467 | inactive: -0.016 | inactive: -0.121 | inactive: 0 | inactive: -0.007 | inactive: 0 |  | inactive: 0.281 |
| NFX1 (UniProt Q12986) | inactive: 0.065 | inactive: -0.024 | inactive: -0.26 | inactive: 0.058 | inactive: 0.042 | inactive: -0.069 | inactive: -0.039 | inactive: -0.107 | inactive: 0.014 | inactive: 0.048 | inactive: -0.028 | inactive: 0.083 | inactive: -0.002 | inactive: 0.178 | inactive: 0.099 | inactive: -0.051 | inactive: 0.227 | inactive: 0.182 |  | inactive: -0.043 |
| NR2C2AP isoform 2 (UniProt Q86WQ0) | inactive: 0.032 | inactive: 0.028 | inactive: -0.013 | inactive: 0.048 | inactive: 0.041 | inactive: 0.026 | inactive: -0.08 | inactive: -0.134 | inactive: -0.089 | inactive: -0.013 | inactive: -0.126 | inactive: -0.003 | inactive: -0.062 | inactive: -0.056 | inactive: 0.012 | inactive: 0.01 | inactive: -0.026 | inactive: -0.073 |  | inactive: 0.063 |
| NME1 isoform 2 (UniProt P15531) | inactive: 0.034 | inactive: -0.015 | inactive: 0.038 | inactive: 0.092 | inactive: 0.063 | inactive: -0.05 | inactive: -0.048 | inactive: -0.001 | inactive: 0.032 | inactive: 0.074 | inactive: 0.021 | inactive: 0.107 | inactive: -0.007 | inactive: -0.035 | inactive: 0.03 | inactive: 0.041 | inactive: 0.032 | inactive: -0.017 |  | inactive: 0.038 |
| NMT1 (UniProt P30419) | inactive: -0.002 | inactive: 0.001 | inactive: 0.039 | inactive: -0.009 | inactive: -0.01 | inactive: 0.07 | inactive: -0.002 | inactive: 0.05 | inactive: 0.036 | active: -0.363 | inactive: 0.023 | inactive: 0.028 | inactive: 0.017 | inactive: 0.017 | inactive: -0.047 | inactive: -0.053 | inactive: 0.008 | inactive: 0.037 |  | inactive: -0.051 |
| NPEPPS (UniProt P55786) | inactive: 0.002 | inactive: 0.058 | inactive: 0.054 | inactive: -0.027 | inactive: 0.061 | inactive: 0.002 | inactive: 0.005 | inactive: 0.035 | inactive: -0.009 | inactive: 0.045 | inactive: 0.039 | inactive: 0 | inactive: -0.013 | inactive: 0.021 | inactive: -0.117 | active: 0.254 | inactive: -0.035 | inactive: -0.026 |  | inactive: 0.045 |
| NOL11 (UniProt Q9H8H0) | inactive: -0.019 | inactive: -0.065 | inactive: 0.015 | inactive: -0.007 | inactive: -0.038 | inactive: 0.042 | inactive: 0.027 | inactive: -0.005 | inactive: -0.014 | inactive: 0.079 | inactive: 0.036 | inactive: 0.031 | inactive: 0.002 | inactive: -0.028 | inactive: 0.037 | inactive: 0.21 | inactive: -0.017 | inactive: -0.014 |  | active: 0.304 |

Quoted at random: two records from the list, in no set order.

| Target | log2 fold change [1] | log2 fold change [2] | log2 fold change [3] | log2 fold change [4] | log2 fold change [5] | log2 fold change [6] | log2 fold change [7] | log2 fold change [8] | log2 fold change [9] | log2 fold change [10] | log2 fold change [11] | log2 fold change [12] | log2 fold change [13] | log2 fold change [14] | log2 fold change [15] | log2 fold change [16] | log2 fold change [17] | log2 fold change [18] | log2 fold change [19] | log2 fold change [20] |
| --- | --- | --- | --- | --- | --- | --- | --- | --- | --- | --- | --- | --- | --- | --- | --- | --- | --- | --- | --- | --- |
| NFATC3 (UniProt Q12968) | inactive: 0.121 | inactive: 0.197 | inactive: 0.024 | inactive: 0 | inactive: 0.039 | inactive: -0.013 | inactive: -0.019 | inactive: -0.101 | inactive: -0.01 | inactive: -0.027 | inactive: -0.116 | inactive: 0.01 | active: -0.406 | active: 0.386 | inactive: -0.105 | inactive: -0.209 | inactive: 0.145 | inactive: 0.053 |  | inactive: -0.036 |
| NOP16 (UniProt Q9Y3C1) | inactive: -0.227 | inactive: -0.289 | inactive: -0.485 | inactive: -0.03 | inactive: -0.167 | inactive: -0.044 | inactive: -0.054 | inactive: 0.017 | inactive: 0.058 | inactive: -0.163 | inactive: -0.229 | inactive: 0.104 | inactive: 0.16 | inactive: 0.19 | inactive: 0.122 | inactive: 0.078 | inactive: 0.138 | inactive: 0.279 | inactive: -0.007 | inactive: -0.554 |
